Test results published in publication PMC8345930.
Results are given in words; binding and its absence hold for the method and conditions named. Some entries that bind do so weakly or less than the wild type.

Amino acid sequences for entries named in this document (tags omitted).
UniProt Q9UBY9: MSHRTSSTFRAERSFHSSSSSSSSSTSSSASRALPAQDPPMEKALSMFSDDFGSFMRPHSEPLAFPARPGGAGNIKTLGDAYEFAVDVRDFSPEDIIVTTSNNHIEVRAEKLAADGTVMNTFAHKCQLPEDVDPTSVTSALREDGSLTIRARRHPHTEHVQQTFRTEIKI

How the values were obtained:
[1] = molecular target: T1, Cys-mutant of HspB8 (C10S/C99S/C195S/N138C) (human) (UniProt Q9UJY1); assay: SEC; SDS-PAGE of the 79–80 kDa SEC peak of the oxidised HspB7 and HspB8 Cys-mutant mixture; data not shown; both purified
T1 sequence: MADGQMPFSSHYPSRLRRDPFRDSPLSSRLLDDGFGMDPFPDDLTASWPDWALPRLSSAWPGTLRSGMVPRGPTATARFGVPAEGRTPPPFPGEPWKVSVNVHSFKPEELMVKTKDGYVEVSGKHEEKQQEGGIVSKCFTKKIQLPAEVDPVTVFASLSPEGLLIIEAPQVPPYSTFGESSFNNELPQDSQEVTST

[2] = molecular target: T1, Cys-mutant of HspB8 (C10S/C99S/C195S/N138C) (human); assay: SEC; oxidised (disulfide cross-linked) proteins alone or in equimolar mixture on Superdex 200 Increase GL 10/300; profile of the mixture compared with the arithmetic sum of the isolated proteins; both purified
[3] = molecular target: T1, Cys-mutant of HspB8 (C10S/C99S/C195S/N138C) (human); assay: cross-linking; disulfide cross-linking: reduced proteins alone or in equimolar mixture (15 µM each), 1 h at 42 °C, dialysed overnight at 37 °C against 50 mM Tris-HCl pH 8.0, 50 mM KCl, 0.1 mM PMSF; read by SDS-PAGE (HspB8) or urea gel electrophoresis (HspB6); both purified

binding [1]: binds
binding [2]: binds
binding [3]: binds
Substance: recombinant human small heat shock protein HspB7 (cvHsp), wild type, untagged (from UniProt Q9UBY9 1-170)
